Patent US20230313299A1, “METHOD FOR DIAGNOSIS AND/OR PROGNOSIS OF LIVER DISEASE PROGRESSION AND RISK OF HEPATOCELLULAR CARCINOMA AND DISCOVERY OF THERAPEUTIC COMPOUNDS AND TARGETS TO TREAT LIVER DISEASE AND CANCER” (UNIVERSITÉ DE STRASBOURG, priority 2020, published 2023)

System: H3K27ac
Assay: H3K27ac ChIPmentation-based ChIP-Seq with RNA-Seq of NASH and CHC patient liver tissue (Table S3)
Design: species or system human
Conditions: NASH patients liver tissue; negative changes indicate good prognosis genes, positive changes poor prognosis genes

DAB1
Epigenetic (H3K27ac) log2FC, NASH: −0.3238
